Laboratory results: PubChem BioAssay AID686943 (Drosophila RNAi Screening Center, 2013)
Purpose: 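Fly genes whose loss alters ERK activation after insulin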 (primary screen). System: Drosophila S2R+ haemocyte-like cells expressing YFP-tagged ERK (Rolled). Reagent: long dsRNA against Drosophila genes. Conditions: insulin stimulation versus unstimulated cells; dose and duration not given. Read-out: 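Antibody staining for doubly phosphorylated ERK divided by ERK-YFP signal, as plate z-scores, in insulin-treated and untreated cells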. Scale: replicate 1, z-score of dpERK with insulin and replicate 2, z-score of dpERK with insulin: higher = more active ERK per ERK-YFP after insulin; replicate 1, z-score of dpERK under basal conditions: higher = more basal active ERK per ERK-YFP; replicate 1, z-score of ERK-YFP with insulin: higher = more YFP-tagged ERK signal.
The deposit covers about 23,000 reagents; shown is a random part of those with a known target gene and a result. 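Extra replicates exist only for a retested subset of genes; insulin dose and duration not given; both raised and lowered dpERK matter.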 Not given: the amount of reagent, the time to read-out.

gene knocked down | dsRNA | replicate 1, z-score of dpERK with insulin | replicate 2, z-score of dpERK with insulin | replicate 1, z-score of dpERK under basal conditions | replicate 1, z-score of ERK-YFP with insulin
dpr15 | DRSC12891 | 0.04 | 0.01 | 0.35 | -0.16
dpr15 | DRSC14187 | -1.29 | -1.76 | -1.31 | -1.42
dpr15 | DRSC14188 | -1.47 | -1.48 | -1.37 | 0.64
Cpr72Ea | DRSC10451 | -0.06 | 0.24 | -0.26 | 0.02
CG9877 | DRSC04587 | -0.9 | 0.17 | 2.17 | 0.23
DEF8 | DRSC09840 | -0.64 | -0.41 | -0.6 | 0.43
Trm7-32 | DRSC15741 | 1.63 | 0.82 | 0.88 | -0.54
CG13751 | DRSC06422 | 0.08 | 0.17 | -0.21 | -0.06
ORY | DRSC22883 | 1.07 | 1.13 | 0.98 | -0.02
Nmdar2 | DRSC18183 | 0.79 | 0.18 | 0.66 | 0.2
Nmdar2 | DRSC18511 | 1.47 | 0.09 | 0.59 | -0.33
Nmdar2 | DRSC18569 | 0.92 | 0.11 | 0.83 | -0.48
Tps1 | DRSC00269 | 0.21 | 0.43 | 0.19 | 0.09
CG11596 | DRSC18540 | -0.22 | -0.79 | -0.24 | 0.27
Cyp4ac3 | DRSC03304 | 0.31 | -0.35 | 0.24 | 0.48
Polr2F | DRSC12366 | 0.3 | 1.01 | -0.84 | -5.79
Tm1 | DRSC13082 | -0.76 | 0.81 | 0.75 | 1.23
Tm1 | DRSC13083 | 0.66 | 1.23 | 1 | 1.02
Tm1 | DRSC16886 | 0.3 | 0.3 | -0.7 | -0.4
santa-maria | DRSC00994 | -0.43 | -0.49 | -0.5 | 0.17
santa-maria | DRSC02180 | 0.21 | -0.39 | 0.09 | -0.06
CG43288 | DRSC17314 | -2.33 | -2.54 | -0.86 | 2.72
CG12158 | DRSC22933 | -0.79 | -1.09 | -0.19 | 0.71
Dro | DRSC07406 | 0.2 | 0.22 | 0.4 | 0.07
Sym | DRSC12301 | 0.19 | 1.14 | -0.24 | 0.46
CG14024 | DRSC00868 | -0.13 | 0.77 | -0.94 | 0.05
CG14024 | DRSC02354 | -0.25 | -0.25 | -0.08 | 0.75
witty | DRSC02378 | 1.35 | 0.42 | 1.78 | -0.21
witty | DRSC21650 | 0.17 | 0.88 | 0.26 | 0.59
CG5805 | DRSC15878 | -0.07 | -0.59 | -0.29 | 0.49
CG10222 | DRSC09714 | 0.73 | 0.01 | -1.54 | -0.01
Cmtr1 | DRSC18400 | 0.3 | 1.1 | 0.92 | -0.28
CG8642 | DRSC07228 | 0.04 | -0.53 | -0.82 | 0.23
Eig71Eh | DRSC11155 | 0.21 | 0.43 | 0.08 | 0.08
CG8152 | DRSC07083 | -0.7 | 0.18 | -0.02 | 0.33
ArfGAP3 | DRSC11794 | -0.47 | -0.21 | 0.42 | 0.87
CG14650 | DRSC12236 | 0.5 | 0.31 | -0.01 | 0.05
CG14492 | DRSC06463 | -0.12 | -0.34 | -0.74 | 0.19
CG12241 | DRSC14481 | 1.13 | 0.15 | 1.85 | 1.22

No new results follow: 6 of the entries above.
gene knocked down | dsRNA | replicate 1, z-score of dpERK with insulin | replicate 2, z-score of dpERK with insulin | replicate 1, z-score of dpERK under basal conditions | replicate 1, z-score of ERK-YFP with insulin
CG14024 | DRSC00868 | -0.13 | 0.77 | -0.94 | 0.05
CG14024 | DRSC02354 | -0.25 | -0.25 | -0.08 | 0.75
witty | DRSC02378 | 1.35 | 0.42 | 1.78 | -0.21
witty | DRSC21650 | 0.17 | 0.88 | 0.26 | 0.59
CG5805 | DRSC15878 | -0.07 | -0.59 | -0.29 | 0.49
CG10222 | DRSC09714 | 0.73 | 0.01 | -1.54 | -0.01
